Results on 34 compounds are retold here after PubChem BioAssay AID330 (DTP/NCI, 2004).

This assay deals with P388 leukemia ip, CD2F1 mice, survival T/C. In words: NCI In Vivo Anticancer Drug Screen. Data for tumor model P388 Leukemia (intraperitoneal) in CD2F1 (CDF1) mice. Conditions: T/C endpoint: median survival time, higher T/C = longer survival.
[1] abbreviates: dose: 100.0 mg/kg/injection, schedule: Q01DX005 (ip), vehicle: saline with Tween-80.
Setting [2] is: dose: 200.0 mg/kg/injection, schedule: Q01DX005 (ip), vehicle: saline with Tween-80.
The mark [3] stands for this setting: dose: 200.0 mg/kg/injection, schedule: Q01DX009 (ip), vehicle: saline.
Setting [4] is: dose: 100.0 mg/kg/injection, schedule: Q01DX009 (ip), vehicle: saline.
[5] abbreviates: dose: 200.0 mg/kg/injection, schedule: Q01DX009 (ip), vehicle: saline with Tween-80.
[6] abbreviates: dose: 200.0 mg/kg/injection, schedule: Q01DX005 (ip), vehicle: Klucel (hydroxypropylcellulose) (HPC).
[7] abbreviates: dose: 200.0 mg/kg/injection, schedule: Q04DX002 (ip), vehicle: Klucel (hydroxypropylcellulose) (HPC).
[8] abbreviates: dose: 25.0 mg/kg/injection, schedule: Q01DX009 (ip), vehicle: Klucel (hydroxypropylcellulose) (HPC).
Where [9] appears, read: dose: 50.0 mg/kg/injection, schedule: Q01DX009 (ip), vehicle: Klucel (hydroxypropylcellulose) (HPC).
Setting [10] is: dose: 25.0 mg/kg/injection, schedule: Q01DX009 (ip), vehicle: saline with Tween-80.
Where [11] appears, read: dose: 240.0 mg/kg/injection, schedule: Q01DX005 (ip), vehicle: saline with Tween-80.
Where [12] appears, read: dose: 100.0 mg/kg/injection, schedule: Q01DX009 (ip), vehicle: saline with Tween-80.
Where [13] appears, read: dose: 50.0 mg/kg/injection, schedule: Q01DX009 (ip), vehicle: saline with Tween-80.
Setting [14] is: dose: 400.0 mg/kg/injection, schedule: Q04DX003 (ip), vehicle: saline with Tween-80.
[15] abbreviates: dose: 50.0 mg/kg/injection, schedule: Q01DX005 (ip), vehicle: saline with Tween-80.

The list does not hold the whole screen: it is rich in T/C values a quarter to a half above the control, in often repeated tests (any T/C) and in doses without a T/C. Other doses and runs of a compound stand elsewhere. T/C gives the treated animals as a percentage of the vehicle group. Some doses have a count of surviving animals in place of a T/C: the source holds a T/C of zero for them, seemingly a mark for toxic or unscored doses. Some doses without a T/C left all or most animals alive at the check, yet need not have been tolerated: the source hardly ever lists a survival T/C far under the control, and the zero likely stands for such cases as well. Counts of survivors are from the toxicity check (mostly the fifth day) where no day follows; animals may have died later. Schedules are NCI's codes, taken here to give the interval after Q, in days (D) or hours (H), and the number of doses after X. Some molecules as drawn cover several salts, stereoisomers or complexes of the source; a dose is that of the sample tested. Some entries hold several experiments; their values stand side by side, smallest first. Where survival is the endpoint, the PubChem record calls one and a half times the control and up active, and a quarter to a half above the control has no call in these data; cut-offs in other NCI protocols can differ. Some T/C values are followed by the survivors on the day toxicity was checked, most often the fifth; without a count, all were alive then.

Consider `CC(C)CCCC(C)CCOCCN1CCCCC1` (centres undefined), for which the survivor count under setting [1] is recorded as 3 of 6 and the survivor count under setting [2] is 0 of 6.
As for `CN(C)CCNC1=CC(=O)c2ccccc2C1=O`, where the note is “dose: 200.0 mg/kg/injection, schedule: Q01DX009 (ip), vehicle: distilled water + Tween-80”, the survivor count is recorded as 3 of 6.
As for `O=Cc1cccc(O)c1O`, the survivor count reads like this: under setting [3], 4 of 6; (dose: 400.0 mg/kg/injection, schedule: Q01DX009 (ip), vehicle: saline) 0 of 6; (dose: 600.0 mg/kg/injection, schedule: Q01DX009 (ip), vehicle: saline) 0 of 6.
On to `c1ccc(C2SC3=NCCCN3Cc3ccccc32)cc1` (centres undefined), for which the survivor count by setting is: under setting [4], 0 of 6; under setting [3], 0 of 6.
Turning to `CC(=O)Nc1nc(NC(C)=O)c(N=O)c(NC(C)=O)n1`, the T/C under setting [4] is 129 % of control. In addition, the survivor count reads like this: under setting [5], 0 of 6; under setting [3], 4 of 6.
As for `O=C(O)C1Cc2c([nH]c3ccccc23)C(CO)N1` (centres undefined), where the note is “dose: 100.0 mg/kg/injection, schedule: Q01DX009 (ip), vehicle: suspension in saline”, the survivor count was 2 of 6.
For `C[C@@H]1CCC[C@@H](NC(=O)N(CCCl)N=O)C1`, the survivor count (dose: 150.0 mg/kg/injection, schedule: Q01DX009 (ip), vehicle: Klucel (hydroxypropylcellulose) (HPC)) is recorded as 5 of 6.
Consider `c1c[nH]c2c3ccncc3c3ncnc3c2c1`, for which the survivor count under setting [6] is 6 of 6.
With `O=S(=O)(Nc1ncccn1)c1ccc(NCc2c3ccccc3nc3ccccc23)cc1`, under setting [7], the T/C was 135 % of control.
Regarding `Cn1cc(CCc2cc[n+](CCC[n+]3ccc(CCc4cn(C)c5ccccc45)cc3)cc2)c2ccccc21`, the survivor count reads like this: under setting [8], 4 of 6; under setting [9], 0 of 6.
`O=C1C2=Cc3ccccc3CN2Cc2ccccc21`: the survivor count (dose: 75.0 mg/kg/injection, schedule: Q01DX009 (ip), vehicle: saline with Tween-80) is listed as 6 of 6.
Take `C/C(=N\NC(=S)N(C)C)c1ccccn1`: the survivor count was 4 of 6 (dose: 12.5 mg/kg/injection, schedule: Q01DX009 (ip), vehicle: saline with Tween-80) and 2 of 6 under setting [10].
In the case of `COc1cccc2c1C(=O)c1c(O)c3c(c(O)c1C2=O)C[C@@](O)(C(C)=O)C[C@@H]3OC1CC(N)C(C(C)O)O1` (some centres undefined), the T/C is, setting by setting: (dose: 50.0 mg/kg/injection, schedule: Q04DX003 (ip), vehicle: distilled water + Tween-80) 128 % of control; (dose: 200.0 mg/kg/injection, schedule: Q04DX003 (ip), vehicle: distilled water + Tween-80) 125 % of control.
As for `Nc1ccc2c(SCCCCSc3c4ccccc4nc4cc(N)ccc34)c3ccccc3nc2c1`, the survivor count under setting [11] was 0 of 6.
On to `Cc1ccc(S(=O)(=O)N(Cc2ccccc2)S(=O)(=O)c2ccc(C)cc2)cc1`, for which the survivor count by setting is: under setting [12], 6 of 6; under setting [5], 5 of 6; (dose: 400.0 mg/kg/injection, schedule: Q01DX009 (ip), vehicle: saline with Tween-80) 6 of 6.
As for `C1=C(N2CCOCC2)N(c2ccccc2)c2ccccc2N=C1N1CCCC1`, the survivor count by setting is: (dose: 100.0 mg/kg/injection, schedule: Q01DX005 (ip), vehicle: Klucel (hydroxypropylcellulose) (HPC)) 1 of 6; under setting [6], 0 of 6.
As for `C1CC1C(=NN=C(C1CC1)C1CC1)C1CC1`, the survivor count under setting [13] was 6 of 6.
For the compound `O=C1NN=C(c2ccccc2)SC1c1ccccc1` (centres undefined), under setting [1], the survivor count is recorded as 6 of 6.
`C/C(=N\N=C(\[Se])N1CCN(c2ccccn2)CC1)c1ccccn1`: the T/C was 126 % of control (dose: 50.0 mg/kg/injection, schedule: Q04DX003 (ip), vehicle: saline with Tween-80) and 133 % of control [4 of 6 alive] (dose: 100.0 mg/kg/injection, schedule: Q04DX003 (ip), vehicle: saline with Tween-80). In addition, the survivor count under setting [14] is given as 4 of 6.
As to `C/C(=C\N1CCN(c2ccc(Cl)cc2)C(C)C1)C(=O)c1ccccc1` (centres undefined), under setting [14], the survivor count is 6 of 6.
Consider `CCC1=CC2CN(CCc3c([nH]c4ccccc34)C(C(=O)OC)(c3cc4c(cc3OC)N(C)C3C(O)(C(=O)OC)C(OC(C)=O)C5(CC)CCCN6CCC43C65)C2)C1` (centres undefined), for which the T/C was 125 % of control (dose: 8.0 mg/kg/injection, schedule: Q01DX009 (ip), vehicle: water); 130 and 148 % of control (dose: 16.0 mg/kg/injection, schedule: Q01DX009 (ip), vehicle: water); 127 and 132 % of control [5 of 6 alive] (dose: 64.0 mg/kg/injection, schedule: Q01DX001 (ip), vehicle: water). Also, the survivor count (dose: 128.0 mg/kg/injection, schedule: Q01DX001 (ip), vehicle: water) was 0 of 6 and 3 of 6; the survivor count (dose: 256.0 mg/kg/injection, schedule: Q01DX001 (ip), vehicle: water) is 0 of 6.
On to `COC1CC(C)(OC(C)=O)Cc2cc3c(c(OC(C)=O)c21)C(=O)c1c(OC(C)=O)cc2c(c1C3=O)OC1OC2(C)C(OC(C)=O)C(N(C)C)C1OC(C)=O` (centres undefined), for which the T/C reads like this: (dose: 20.0 mg/kg/injection, schedule: Q01DX009 (ip), vehicle: other) 133 % of control; (dose: 40.0 mg/kg/injection, schedule: Q01DX009 (ip), vehicle: other) 137 % of control.
With `Cc1ccc(S(=O)(=O)C(CCS(C)(=O)=O)C(=O)c2ccccc2)cc1` (centres undefined), the survivor count runs as follows: (dose: 60.0 mg/kg/injection, schedule: Q01DX005 (ip), vehicle: saline with Tween-80) 6 of 6; (dose: 120.0 mg/kg/injection, schedule: Q01DX005 (ip), vehicle: saline with Tween-80) 6 of 6.
On to `OCc1c(Cl)n(-c2ccccc2)c2ccccc12`, for which the survivor count under setting [7] is given as 6 of 6.
`CCC/C(=N\NC(=S)N1CC2CCC(CC2)C1)c1ccccn1`: the T/C runs as follows: (dose: 25.0 mg/kg/injection, schedule: Q01DX005 (ip), vehicle: saline with Tween-80) 126 % of control; under setting [15], 138 % of control. The survivor count is, setting by setting: under setting [15], 2 of 6; under setting [1], 1 of 6; under setting [2], 0 of 6.
As to `O=C(c1ccc2cc(Cl)c(Cl)cc2c1)C(Cl)Cl`, the survivor count reads like this: under setting [8], 6 of 6; under setting [9], 0 of 6.
Take `CCN(CC)Cc1cc(Nc2cc(C)nc3ccc(N(C)C)cc23)ccc1O`: the survivor count is 6 of 6 (dose: 120.0 mg/kg/injection, schedule: Q01DX005 (ip), vehicle: saline) and 0 of 6 (dose: 240.0 mg/kg/injection, schedule: Q01DX005 (ip), vehicle: saline).
Take `Cc1ccc(Cl)c2ccccc12`: under setting [5], the T/C is 130 % of control.
Consider `Cc1cccc(OC(=O)Nc2ccc(C(=O)O)c(O)c2)c1`, for which the survivor count under setting [11] is on record as 3 of 6.
With `CC1OCC(Br)([N+](=O)[O-])CO1` (centres undefined), the T/C (dose: 6.25 mg/kg/injection, schedule: Q01DX009 (ip), vehicle: saline with Tween-80) is 130 % of control. Moreover, the survivor count is, setting by setting: under setting [10], 6 of 6; under setting [13], 0 of 6; under setting [12], 0 of 6; under setting [5], 0 of 6.
On to `COC(=O)c1ccc(C(=O)OC)c2nc3cc([N+](=O)[O-])ccc3nc12`, for which the survivor count (dose: 240.0 mg/kg/injection, schedule: Q01DX005 (ip), vehicle: suspension in saline) is recorded as 3 of 6.
Turning to `COc1cc2oc3cc(OC)c(OC)c(CC=C(C)C)c3c(=O)c2c(O)c1CC=C(C)C`, the survivor count (dose: 50.0 mg/kg/injection, schedule: Q01DX005 (ip), vehicle: Klucel (hydroxypropylcellulose) (HPC)) is listed as 6 of 6.
Turning to `Cc1ccc(C)c(N=Nc2ccc(O)cc2)c1`, for the setting “dose: 200.0 mg/kg/injection, schedule: Q04DX003 (ip), vehicle: saline with Tween-80”, the survivor count was 1 of 6.
Regarding `C1CCC(N2CSC3CCCCC32)CC1` (centres undefined), the survivor count (dose: 240.0 mg/kg/injection, schedule: Q01DX005 (ip), vehicle: Klucel (hydroxypropylcellulose) (HPC)) was 0 of 6.
